According to PubChem BioAssay AID2685 (National Center for Advancing Translational Sciences (NCATS), 2010):
The list shows a part of the results. Shown are side measurements of this screen, not its main read-out; they come without a call. Compounds called inactive in the main read-out are mostly missing here. The note in brackets gives the kind of curve behind each potency; many fits are weak.

Assay: qHTS Assay for Lipid Storage Modulators in Drosophila S3 Cells;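 for cell number change: cells counted by Cell Tracker Red CMTPX staining in the red channel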
Details: BODIPY lipid droplet fluorescence, 18-24 h; for cell number change: measured here: cell count max response, cells fed with added oleic acid
Outline: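 Laser-scanning cytometry quantifies lipid droplet accumulation (500–530 nm total intensity; droplet/cell object ratio) in oleic acid-fed (400 uM added) Drosophila S3 cells treated with a concentration series. 20 uM Triacsin C defined 100% inhibition.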

[1] = measured here: lipid fluorescence (Fed channel) AC50, cells fed with added oleic acid
[2] = measured here: cell number channel AC50, cells fed with added oleic acid

## Cc1cccc(N2CCN(C(=O)C3CCN(S(=O)(=O)c4c(C)noc4C)CC3)CC2)c1C
[1]
  AC50: 29.1 µM [rising, single point]

## O=C(O)Cc1ccc(NC(=O)c2ccc(NC(=O)C3CC3)cc2)cc1
  cell number change: -5.44%

## Cc1cc2oc(=O)cc(CN3CCc4ccccc43)c2cc1Cl
  cell number change: 13.9%
[1]
  AC50: 0.82 µM [rising, partial curve]

## CS(=O)(=O)N1CCC(C(=O)Nc2cccc([N+](=O)[O-])c2)CC1
  cell number change: -4.87%
[1]
  AC50: 0.1 µM [falling, full curve, poor fit]

## O=C1CCCN1CCC1CCN(C2CC(=O)N(c3ccc(Cl)cc3)C2=O)CC1 (stereo unspecified)
  cell number change: -38.4%
[2]
  AC50: 29.1 µM [falling, single point]
[1]
  AC50: 0.58 µM [falling, single point]

## O=C(CSc1nnc(NC(=O)C2CC(=O)N(c3ccccc3)C2)s1)NC1CCCC1 (stereo unspecified)
  cell number change: 3%

## Clc1ccc2nc(CSCc3ccccc3)cn2c1
  cell number change: 47.8%
[2]
  AC50: 0.651 µM [rising, full curve]
[1]
  AC50: 29.1 µM [rising, single point]

## O=C(NC(=S)Nc1ccc(N2CCCC2)cc1)c1ccc(F)cc1
  cell number change: -6.47%

## O=C(Cn1nnc(-c2cccs2)n1)Nc1ccccc1C(F)(F)F
  cell number change: 42.5%

## Cc1nnc(N/N=C/c2ccc(-c3ccccc3F)o2)n1N
  cell number change: -12.5%
[1]
  AC50: 14.6 µM [falling, partial curve]

## Cc1ccc(F)cc1NC(=O)N1CCN(c2ccnc3cc(Cl)ccc23)CC1
  cell number change: 25%
[1]
  AC50: 0.366 µM [rising, full curve]

## COc1ccccc1N(C)S(=O)(=O)c1ccc(C(=O)Nc2nc(C)cs2)cc1
  cell number change: -62.1%
[2]
  AC50: 29.1 µM [falling, single point]
[1]
  AC50: 29.1 µM [falling, single point]

## COc1ccccc1OCC(=O)N1CCN(c2ccccc2OC)CC1
  cell number change: 46%
[2]
  AC50: 18.4 µM [rising, single point]
[1]
  AC50: 6.51 µM [rising, single point]

## Cc1csc2ncnc(N3CCN(S(=O)(=O)c4cccc(C(F)(F)F)c4)CC3)c12
  cell number change: -35.6%
[2]
  AC50: 18.4 µM [falling, single point]

## CC(=O)c1cccc(NC(=O)N2CCC(NC(=O)C3CCCCC3)CC2)c1
  cell number change: 12.2%
[1]
  AC50: 29.1 µM [falling, single point]

## O=C(CCSc1ccc(F)cc1)NNC(=O)c1ccc([N+](=O)[O-])cc1
  cell number change: 7.63%
[1]
  AC50: 18.4 µM [rising, partial curve]

## O=S(=O)(CCc1nc2ccccc2[nH]1)c1ccc(Br)cc1
  cell number change: 15.1%
[1]
  AC50: 20.6 µM [rising, single point]

## COc1cc2c(cc1OC)C1O[C@](CCCCN3C(=O)c4ccccc4C3=O)(C2)OC2=C1C(=O)CC(C)(C)C2
  cell number change: 0.764%

## COc1cc(Cl)ccc1OCc1cc(C(=O)NCC(C)(C)N2CCOCC2)no1
  cell number change: 1.59%
[1]
  AC50: 32.6 µM [falling, single point]

## N#CCCn1cc(/C=N/N=C2\NC(=O)C(CC(=O)O)S2)c(-c2ccc(F)cc2)n1 (stereo unspecified)
  cell number change: -4.42%
[1]
  AC50: 1.03 µM [falling, full curve]

## O=C(Nc1ccc(F)cc1)NC1CCN(Cc2ccccc2)CC1
[2]
  AC50: 0.00461 µM [falling, full curve, poor fit]
[1]
  AC50: 1.16 µM [falling, single point]

## COCCCNC(=O)CSc1nc2cc(C(=O)NCCOC)ccc2c(=O)n1Cc1ccc2c(c1)OCO2
  cell number change: -19.8%

## N#CNC(=Nc1cccc(F)c1)SCc1ccccc1F
  cell number change: 1.83%
[1]
  AC50: 0.231 µM [falling, full curve, poor fit]

## O=C(COC(=O)/C=C/c1ccc(C(F)(F)F)cc1)Nc1ccc2[nH]c(=O)[nH]c2c1
  cell number change: -18.4%

## COc1cccc(N(CC(=O)NC2CCCCC2)C(=O)Cn2nnc(-c3ccc(C)o3)n2)c1
  cell number change: 36.3%
[2]
  AC50: 10.3 µM [rising, partial curve, poor fit]
[1]
  AC50: 29.1 µM [rising, single point]

## Cc1ccc(Oc2cc(NN3CCCCC3)c([N+](=O)[O-])cc2[N+](=O)[O-])c(Cl)c1
  cell number change: 20.4%
[1]
  AC50: 6.51 µM [rising, partial curve, poor fit]

## CN(CC1COc2ccccc2O1)C(=O)c1cccc(S(=O)(=O)N2CCCC2)c1 (stereo unspecified)
  cell number change: -9.52%
[1]
  AC50: 29.1 µM [falling, single point]

## COc1cccc(OCC(O)CNC(=O)c2oc3c(C)c(C)ccc3c2C)c1 (stereo unspecified)
  cell number change: -13.5%
[1]
  AC50: 16.4 µM [rising, partial curve]

## CC1(OC(=O)C2CCCC2)C(=O)C=C2C=C(c3ccsc3)N(Cc3ccc4c(c3)OCO4)C=C2C1=O (stereo unspecified)
  cell number change: -34.7%
[2]
  AC50: 8.2 µM [falling, partial curve]
[1]
  AC50: 10.3 µM [falling, partial curve]

## CCN(Cc1ccccc1)C(c1cc2ccc(C)cc2[nH]c1=O)c1nnnn1CCOC (stereo unspecified)
  cell number change: 13.5%
[1]
  AC50: 29.1 µM [falling, single point]

## CCOC(=O)c1sc2c(c1C)C(c1cccs1)C1=C(CCCC1=O)N2 (stereo unspecified)
  cell number change: -27.9%
[1]
  AC50: 32.6 µM [falling, single point]

## CC1(C)CC(=O)C=C(c2cccc3c2sc2ccccc23)C1
  cell number change: -8.9%
[1]
  AC50: 0.0517 µM [rising, full curve, poor fit]

## Cc1ccc2[nH]cc(C(=O)CN3CCOCC3)c2c1
  cell number change: 23.3%
[2]
  AC50: 0.116 µM [rising, full curve, poor fit]
[1]
  AC50: 2.59 µM [rising, partial curve]

## COc1ccc(N(C)S(=O)(=O)c2cccc(C(=O)OC(C(=O)Nc3cc(C)cc(C)c3)c3ccccc3)c2)cc1 (stereo unspecified)
[1]
  AC50: 0.58 µM [falling, single point]

## C=CCn1c(SCC(=O)c2c(N)n(C)c(=O)n(C)c2=O)nc2sc(C)c(C)c2c1=O
  cell number change: 124%
[2]
  AC50: 4.11 µM [falling, single point]

## COc1ccc(NC(=O)Cn2c(-c3ccccc3)cn(-c3ccc(C)cc3)c2=O)cc1
  cell number change: 1.85%
[2]
  AC50: 6.51 µM [rising, single point]
[1]
  AC50: 16.4 µM [rising, partial curve]

## Cc1nc(NC(=O)CSc2nc(N)cc(N)n2)sc1C
  cell number change: 10.9%
[1]
  AC50: 29.1 µM [rising, partial curve]

## COCCN(CCOC)C(=O)Nc1ccc(Cl)cc1
[1]
  AC50: 0.651 µM [rising, partial curve, poor fit]

## CC(NC(=O)C1CCC1)c1ccc(Cl)cc1 (stereo unspecified)
  cell number change: -62.4%
[2]
  AC50: 0.00731 µM [falling, full curve, poor fit]
[1]
  AC50: 0.13 µM [falling, full curve, poor fit]

## Cc1ccc(NC(=O)CNc2cccc(S(=O)(=O)N3CCCCC3)c2)cc1F
[1]
  AC50: 20.6 µM [falling, single point]

## COC(=O)c1c(-c2ccccc2)c(-c2ccccc2)nn(C)c1=O
  cell number change: -23%
[1]
  AC50: 16.4 µM [rising, partial curve]

## CN1CCC(=NNc2ncnc3sc4c(c23)CCCC4)CC1
  cell number change: 19.5%
[1]
  AC50: 6.51 µM [falling, single point]

## CC(Cc1ccco1)NC(=O)c1ccc(C(F)(F)F)cc1 (stereo unspecified)
  cell number change: -7.94%
[1]
  AC50: 29.1 µM [rising, single point]

## Cc1[nH]n(-c2ccccc2)c(=O)c1/C=N/Nc1nncc(-c2ccccc2)n1
  cell number change: 4.51%
[2]
  AC50: 0.259 µM [rising, full curve, poor fit]
[1]
  AC50: 0.411 µM [rising, full curve]

## CC(C)[C@H](NC(=O)Nc1ccc(Oc2ccccc2)cc1)C(=O)O
  cell number change: -6.62%

## Nn1cnnc1SCC(=O)Nc1ccc2c(c1)OCCO2
  cell number change: -177%
[2]
  AC50: 29.1 µM [falling, partial curve]

## CCOC(=O)c1cc2c(ccn2C)n1Cc1ccc(C#N)cc1
  cell number change: 20.9%
[1]
  AC50: 1.64 µM [rising, partial curve, poor fit]

## CCC(C)(C)NC(=O)C(c1ccccn1)N(C(=O)c1csnn1)C1CCCCC1 (stereo unspecified)
  cell number change: -12.5%
[1]
  AC50: 29.1 µM [falling, single point]

## CC1CC(C)CN(C(=O)c2cc(-c3ccccn3)nc3ccccc23)C1 (stereo unspecified)
  cell number change: -39.4%
[2]
  AC50: 25.9 µM [falling, single point]
[1]
  AC50: 20.6 µM [falling, single point]

## CC(C)CC(COCc1ccc([N+](=O)[O-])cc1)N1CCN(C(=O)c2ccc(C(F)(F)F)cc2)CCC1=O (stereo unspecified)
  cell number change: -25.8%
[1]
  AC50: 0.184 µM [falling, full curve, poor fit]

## O=C(Nc1nnc(-c2ccco2)s1)C1CCCCC1
[1]
  AC50: 32.6 µM [falling, partial curve, poor fit]

## N/C(=N\OC(=O)C1CCCCC1)c1ccc(Cl)cc1
  cell number change: 15.3%
[1]
  AC50: 29.1 µM [rising, single point]

## Cc1cccc(CSCc2ccc(C(=O)NC(C)C)o2)c1
[1]
  AC50: 0.092 µM [rising, full curve, poor fit]

## CN(C)S(=O)(=O)c1cccc(C(=O)NCc2cccs2)c1
  cell number change: 42.4%
[1]
  AC50: 29.1 µM [rising, single point]

## COc1cc(OC)c(OC)cc1CNC(=O)CCN1C(=O)c2cccc([N+](=O)[O-])c2C1=O
  cell number change: 8.4%

## Cc1cccc(Cn2cnc3c(sc4nc(C)cc(C)c43)c2=O)c1
  cell number change: -5.56%

## C/C(=N\Nc1ccccc1C(=O)O)c1ccncc1
  cell number change: 21.8%

## CCOC(=O)Cc1c(C)nc2c(-c3cccc(Br)c3)c[nH]n2c1=O
  cell number change: -5.75%
[1]
  AC50: 29.1 µM [falling, single point]

## COCCCN1C(=O)C(O)=C(C(=O)c2ccco2)C1c1ccccc1 (stereo unspecified)
[1]
  AC50: 0.13 µM [falling, full curve, poor fit]
